Values of other authors in patent US20040121028A1, “Plant based agents as bioavailability / bioefficacy enhancers for drugs and nutraceuticals” (COUNCIL OF SCIENTIFIC AND INDUSTRIAL RESEARCH, priority 2002, published 2004).
For at least one compound, name, drawing or mass did not settle the structure.

Conditions: in combination with piperine, retaining therapeutic efficacy at par with the standard dose (450 mg); cited from earlier work

O=C(/C=C/C=C/c1ccc2c(c1)OCO2)N1CCCCC1 [piperine]
dose of rifampicin can be reduced: about 50%
